# The list shows a part of the results, in another mix than the full data. This is a noisy data set.
# Compound: COC(=O)/C=C/c1ccccc1 [methyl cinnamate]
# Experiment: log2 ratio of iodoacetamide-alkyne labeling of the cysteine site, DMSO over compound (competition); higher = stronger covalent engagement of the cysteine by the compound, active = 1 or more
# Settings: 500 µM; treatment time 1 h; system: HEK293T cell lysate
# In short: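 Electrophile (500 µM) or vehicle was added to HEK293T lysate (2 mg/mL) for 1 h at ambient temperature before iodoacetamide alkyne labelling (1 h) and click coupling to sCIP-TMT reagents. After pooling, overnight trypsin digestion at 37 °C, streptavidin enrichment and acid elution, peptides were measured by Orbitrap Eclipse LC-MS/MS with FAIMS and quantified in FragPipe. Each cysteine's log2 competition ratio compares mean control-channel with mean compound-channel reporter intensity, control over compound. Data came from duplicate channels across three replicates, excluding cysteines quantified in only one replicate.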
row,Target,log2 ratio of iodoacetamide-alkyne labeling
1,OSBPL9 C230 (UniProt Q96SU4),inactive: 0.743
2,SMG1 C2304 (UniProt Q96Q15),inactive: 0.111
3,SCLT1 C38 (UniProt Q96NL6),inactive: -0.437
4,UHRF1 C410 (UniProt Q96T88),inactive: 0.0635
5,NCAPG C843 (UniProt Q9BPX3),inactive: 0.0619
6,ZFR C525 (UniProt Q96KR1),inactive: 0.86
7,MED15 C618 (UniProt Q96RN5),inactive: 0.0144
8,CDC5L C96 (UniProt Q99459),inactive: 0.0348
9,POP1 C777 (UniProt Q99575),inactive: 0.442
10,TMEM209 C367 (UniProt Q96SK2),inactive: -0.184
11,SPAG5 C1035 (UniProt Q96R06),inactive: 0.213
12,VRK1 C220 (UniProt Q99986),inactive: 0.165
13,MYBBP1A C890 (UniProt Q9BQG0),inactive: 0.0293
14,DDX50 C603 (UniProt Q9BQ39),inactive: -0.121
15,ZFR C5 (UniProt Q96KR1),inactive: 0.0688

# A portion taken from the entries so far:
row,Target,log2 ratio of iodoacetamide-alkyne labeling
14,DDX50 C603 (UniProt Q9BQ39),inactive: -0.121
15,ZFR C5 (UniProt Q96KR1),inactive: 0.0688

# Source: the supplement of paper PMC11006884
